Measured values as given in patent EP0343085A1, “Pentapeptides and their use as antithrombotics” (CENTRE NATIONAL DE LA RECHERCHE SCIENTIFIQUE (CNRS), priority 1988, dated 1989).
Not every detail of the peptide structures is certain; ends, links or a residue may be inferred. Ends that are not written are not given here.

Legend:
plaquettes de rat = experiment: ADP-induced platelet aggregation in platelet-rich plasma (rat); format: cell-based; details: rat PRP, ADP 1,2 µM
plaquettes de cobaye = experiment: ADP-induced platelet aggregation in platelet-rich plasma (guinea pig); format: cell-based; details: guinea pig PRP, ADP 1,2 µM
artériole du mésentère [1] = experiment: Thrombosis after localized endothelial lesion of a mesenteric arteriole (rat); format: in vivo; details: intravenous injection, thromboses counted over 15 minutes
artériole du mésentère [2] = experiment: Thrombosis after localized endothelial lesion of a mesenteric arteriole (guinea pig); format: in vivo, cobaye; details: intravenous injection, thromboses counted over 15 minutes
artériole du mésentère [3] = experiment: Thrombosis after localized endothelial lesion of a mesenteric arteriole (duration and delay, species not specified); format: in vivo, rat ou le cobaye; details: for durée de l'effet: duration of antithrombotic effect after intravenous injection
plaquettes humaines = experiment: ADP-induced aggregation of human platelets; format: cell-based, homme; details: aggregation induced by ADP 10 µM, read-out: concentration qui inhibe 50 % de l'agrégation plaquettaire
[4] = test system: complexe GPIIb/IIIa de la membrane plaquettaire; experiment: ADP-induced fibrinogen binding to human platelets; design: species or system homme; details: read-out: concentration pour 50 % d'inhibition de la liaison du fibrinogène aux plaquettes

Row | Molecule | % d'inhibition (plaquettes de rat; concentration C = 4 x 10⁻³M) [%] | % d'inhibition (plaquettes de cobaye; concentration C = 1,5x10⁻³ M) [%] | dose pour 50 % d'inhibition du nombre de thromboses (artériole du mésentère [1]) [µM/kg] | dose pour 50 % d'inhibition du nombre de thromboses (artériole du mésentère [2]) [µM/kg] | durée de l'effet (artériole du mésentère [3]) [min] | IC50 (plaquettes humaines) [µM] | IC50 [4] [µM] | % d'inhibition (plaquettes de rat; concentration C = 10⁻⁵M) [%] | % d'inhibition (plaquettes de cobaye; concentration C = 10⁻⁵M) [%] | retard d'apparition de la thrombose multiplié par rapport au RGDS (artériole du mésentère [3]; fold factor relative to RGDS, intravenous injection)
1 | N=C(N)NCCC[C@H](N)C(=O)NCC(=O)N[C@@H](CC(=O)O)C(=O)N[C@@H](CO)C(=O)O [RGDS, reference compound] | < 40 | 100 | 2 | 1 | ≥ 75 |  |  |  |  | 
2 | KIQDK [KIQDK, Lys-Ile-Gln-Asp-Lys] |  |  |  |  |  | 350 | 1100 |  |  | 
3 | KNQDK [KNQDK, Lys-Asn-Gln-Asp-Lys] |  |  | 8 | 6 | ~30 | 500 | 200 | 100 | 100 | 10
